# Measured values reported in PubChem BioAssay AID901 (National Center for Advancing Translational Sciences (NCATS), 2007).
# This is one part of the list. Shown are side measurements of this screen, not its main read-out; they come without a call. Compounds called inactive in the main read-out are mostly missing here. Words in brackets tell the shape of the fitted curve; partial curves, single points and poor fits give uncertain potencies.
# Assay: qHTS Assay for Identifying the Cell-Membrane Permeable IMPase Inhibitors
# Conditions: CHO-M1 cells, IP1 accumulation, HTRF TR-FRET ratio; measured here: donor channel 620 nm AC50
row,Structure (SMILES),AC50
1,COC(=O)c1c(NC(=O)c2ccoc2C)sc2c1CCC2,"31.6 µM [rising, single point]"
2,N#CCCn1nnc2ccccc21,"0.631 µM [falling, full curve, poor fit]"
3,CCC(=O)Nc1nnc(Cc2ccccc2)s1,"0.282 µM [rising, full curve]"
4,CCCCc1c(C)nn(-c2nnc3c4ccccc4n(CC)c3n2)c1C,"6.31 µM [rising, single point]"
5,CC(=O)c1c(C)[nH]c(C(=O)N2CCc3ccccc32)c1C,"12.6 µM [falling, single point]"
6,CN(C)c1cc2c(c(N(C)C)c1)C(=O)c1ccccc1C2=O,"12.6 µM [falling, single point]"
7,O=C(c1ccco1)c1cc2c(ccc3ccccc32)oc1=O,"1.58 µM [falling, partial curve]"
8,COc1ccc(OCC(=O)Nc2ccc(S(=O)(=O)Nc3cc(C)nc(C)n3)cc2)cc1,"0.501 µM [falling, full curve]"
9,CCOCCn1c(CN2CCC(Cc3ccccc3)CC2)nc2c1c(=O)n(C)c(=O)n2C,"0.00501 µM [rising, full curve, poor fit]"
10,Cn1c(=O)[nH]c2ncn(C)c2c1=O,"31.6 µM [falling, single point]"
11,CCOC(=O)C1CCCN(C(=O)c2cc(-c3ccccc3)on2)C1 (configuration not stated),"2.82 µM [falling, partial curve, poor fit]"
12,Cc1onc(-c2ccccc2Cl)c1C(=O)Nc1nnc(-c2ccc(Br)cc2)s1,"0.0355 µM [rising, full curve, poor fit]"
13,O=C(NCC1CCCO1)c1ccc(NC(=O)C2CC=CCC2C(=O)O)cc1 (configuration not stated),"0.631 µM [falling, full curve, poor fit]"
14,Nc1ccc(Nc2ccncc2[N+](=O)[O-])cc1,"10 µM [falling, partial curve, poor fit]"
15,COc1ccc(C(=O)NCc2nnc(SCC(=O)NCc3ccc(F)cc3)o2)cc1,"12.6 µM [falling, single point]"
16,COc1ccc(S(=O)(=O)N2CCCC(C(=O)NCc3ccncc3)C2)cc1Cl (configuration not stated),"2.82 µM [rising, single point]"
17,C=CCN1C(c2ccccc2)=CS/C1=C(\C#N)c1nnc2n1CCCCC2,"3.98 µM [falling, full curve, poor fit]"
18,O=C(Nc1cccc(Cl)c1Cl)C1CCN(c2ncccn2)CC1,"15.8 µM [falling, single point]"
19,CN(C)[C@@H]1C(=O)C(C(N)=O)=C(O)[C@]2(O)C(=O)C3=C(O)c4c(O)ccc(Cl)c4[C@H](O)[C@H]3C[C@@H]12,"2.51 µM [rising, single point]"
20,CC(=O)Nc1ccc(N2C(C(C)=O)=NN(c3ccc(Cl)cc3)C2c2sccc2C)cc1 (configuration not stated),"0.158 µM [falling, full curve]"
21,Cc1ccc(CSC2=NCCN2C(=O)c2ccco2)cc1,"0.316 µM [rising, full curve]"

row,Structure (SMILES),AC50
1,CCOC(=O)CSc1nnc(C)n1N,"31.6 µM [falling, single point]"
2,O=C(COc1ccc(S(=O)(=O)N2CCCC2)cc1Cl)NCc1ccco1,"3.16 µM [falling, partial curve]"
3,CCOC(=O)N1CCN(c2cc(NCCC(=O)O)c3c4c(onc24)-c2ccccc2C3=O)CC1,"12.6 µM [falling, partial curve]"
4,CCCn1nnc(NC(=O)c2cc(Br)ccc2OC)n1,"17.8 µM [falling, single point]"
5,CCOc1ccc(/C(O)=C2\C(=O)C(=O)N(c3cc(C)on3)C2c2ccccc2OC)cc1 (configuration not stated),"15.8 µM [rising, single point]"
6,CC1(C(=O)NC2CCCC2)CCC(=O)N1Cc1ccccc1 (configuration not stated),"0.316 µM [rising, partial curve, poor fit]"
7,Cc1ccccc1-c1nnc(SCC(=O)N2CCCc3ccccc32)o1,"0.002 µM [falling, full curve, poor fit]"
8,COc1cc2c(C(=O)NCc3ccccn3)cn(CC(C)C)c(=O)c2cc1OC,"35.5 µM [falling, single point]"
9,CCOC(=O)c1nnc(-c2ccccc2)o1,"1.26 µM [falling, full curve, poor fit]"
10,COc1ccc(-c2nc(CCNC(=O)c3ccco3)cs2)cc1OC,"22.4 µM [falling, partial curve, poor fit]"
11,Cn1c(=O)cc(SCC(=O)N2CCOCC2)c2ccc(Cl)cc21,"14.1 µM [rising, partial curve, poor fit]"
12,Cc1nn(-c2ccccc2)c(C)c1/C=N/NC(=O)CSc1nc2ccccc2c(=O)n1-c1ccc(Br)cc1,"5.01 µM [falling, single point]"
13,COCCN(C(=O)CNC(=O)c1ccco1)C(C(=O)NC1CCCCC1)c1cccs1 (configuration not stated),"0.0794 µM [falling, full curve, poor fit]"
14,CCOC(=O)c1cccc(NC(=O)CSc2nnnn2CC)c1,"6.31 µM [falling, partial curve, poor fit]"
15,COc1ccc(OC)c(-n2c(-c3ccc(C)cc3)n[nH]c2=S)c1,"3.98 µM [rising, partial curve, poor fit]"
16,COc1cccc(C2=NN(C(=O)c3ccccc3)C(O)(C(F)(F)F)C2)c1 (configuration not stated),"20 µM [falling, single point]"
17,COc1ccc(OCc2nc(C#N)c(NCc3ccccc3Cl)o2)cc1,"0.0141 µM [rising, full curve, poor fit]"
18,CCOC(=O)C(NCc1ccc2c(c1)OCO2)(NC(=O)CC)C(F)(F)F (configuration not stated),"6.31 µM [rising, partial curve, poor fit]"
19,O=C(CCS(=O)(=O)c1ccc(Br)s1)NCc1ccc2c(c1)OCO2,"0.01 µM [rising, full curve, poor fit]"
20,Cn1cnnc1Sc1nc2ccccc2nc1NS(=O)(=O)c1ccccc1,"0.00501 µM [rising, full curve, poor fit]"
21,CC(=O)[C@@H]1[C@H]2[C@H](C(=O)[C@H]3OC[C@@H]2O3)[C@H]2C=Cc3ccccc3N21,"25.1 µM [falling, partial curve, poor fit]"

# Of the compounds above, three contain fluorine.
row,Structure (SMILES),AC50
15,COc1ccc(C(=O)NCc2nnc(SCC(=O)NCc3ccc(F)cc3)o2)cc1,"12.6 µM [falling, single point]"
16,COc1cccc(C2=NN(C(=O)c3ccccc3)C(O)(C(F)(F)F)C2)c1 (configuration not stated),"20 µM [falling, single point]"
18,CCOC(=O)C(NCc1ccc2c(c1)OCO2)(NC(=O)CC)C(F)(F)F (configuration not stated),"6.31 µM [rising, partial curve, poor fit]"
